Consider 26 compounds from the supplement of paper PMC10727501.

Holding throughout (settings): 10 µM; pre-incubation: 30-90 min
Test [1] concerns Danio rerio larvae (5 dpf, TLF). The test can be described thus: OMR-Perf (SSMD vs DMSO vehicle); higher = higher than vehicle (e.g. higher dark-flash O-bend response probability, or better optomotor performance).
For test [2] the test system is unchanged. The test can be described thus: Prob-Test (SSMD vs DMSO vehicle); higher = higher than vehicle (e.g. higher dark-flash O-bend response probability, or better optomotor performance).
Test [3] shares this test system. The test can be described thus: Prob-Naive (SSMD vs DMSO vehicle); higher = higher than vehicle (e.g. higher dark-flash O-bend response probability, or better optomotor performance).
Test [4] shares this test system. Put plainly: Prob-Train (SSMD vs DMSO vehicle); higher = higher than vehicle (e.g. higher dark-flash O-bend response probability, or better optomotor performance).

The list shows a part of the results. Repeats in this data set agree poorly, so a single value says little.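 Free-swimming zebrafish larvae were scored for O-bend response probability to dark flashes (naive: first five; training: remaining flashes of four 60-flash blocks; test: later 60-flash block) and for turning toward alternating leftward/rightward LED motion (OMR). Six treated larvae were compared with sixty 0.1% DMSO controls; |SSMD|≥2 defined a hit.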

On to `Cl.OC(CCN1CCCCC1)(c1ccccc1)C1CC2C=CC1C2` (centres undefined) [Biperiden HCl], for which, in test [1], the OMR-Perf was -0.645. The Prob-Test in test [2] is -0.908. The Prob-Naive in test [3] came out at 0.0775. In test [4], this compound yielded a Prob-Train of -0.802.
For `O=C(O)[C@H](O)[C@@H](O)C(=O)O.c1cnc2cc3c(cc2n1)C1CNCC3C1` [Varenicline Tartrate], in test [1], the OMR-Perf amounted to 0.0742. Further, the Prob-Test in test [2] was -0.125. The Prob-Naive in test [3] worked out at 0.499. This compound also had a Prob-Train in test [4] of -0.0872.
In test [1], `COc1cccc2c1C(=O)c1c(O)c3c(c(O)c1C2=O)C[C@@](O)(C(=O)CO)C[C@H]3O[C@H]1C[C@H](N)[C@@H](O)[C@H](C)O1.Cl` [Epirubicin HCl] registered an OMR-Perf of -0.371. For the same compound, the Prob-Test in test [2] is 0.0981. In test [3], this compound had a Prob-Naive of -0.295. The same compound yielded a Prob-Train in test [4] of -0.431.
In the case of `CN(c1nccc(=O)[nH]1)C1CCN(c2nc3ccccc3n2Cc2ccc(F)cc2)CC1` [Mizolastine (Mizollen)], in test [1], the OMR-Perf stood at 0.256. This compound also returned a Prob-Test in test [2] of 0.124. Also, the Prob-Naive in test [3] is -0.306. Besides, the Prob-Train in test [4] was -0.182.
Take `O=C(O)[C@]1(Cc2cccc(Nc3nccs3)n2)CC[C@@H](Oc2cccc(Cl)c2F)CC1`: the OMR-Perf in test [1] is -0.248. The Prob-Test in test [2] was -0.463. In test [3], this compound had a Prob-Naive of -0.137. In test [4], this compound registered a Prob-Train of 0.278.
Compound `Cc1ccc(Nc2c(F)cccc2Cl)c(CC(=O)O)c1` [Lumiracoxib] gave an OMR-Perf in test [1] of -0.3. The Prob-Test in test [2] was -0.111. In addition, in test [3], the Prob-Naive was -0.996. The compound also returned a Prob-Train in test [4] of -0.68.
For `CC(C)(C)C#Cc1cc(N(C(=O)[C@H]2CC[C@H](C)CC2)[C@H]2CC[C@@H](O)CC2)c(C(=O)O)s1` [VX-222 (VCH-222, Lomibuvir)], in test [1], the OMR-Perf stood at 0.361. This compound also returned a Prob-Test in test [2] of 0.358. Moreover, in test [3], the Prob-Naive was -0.157. Further, the Prob-Train in test [4] turned out to be 0.616.
In test [1], `OC[C@@H]1O[C@H](O[C@]2(CCl)O[C@H](CCl)[C@@H](O)[C@H]2O)[C@H](O)[C@@H](O)[C@H]1Cl` [Sucralose] registered an OMR-Perf of -0.495. In test [2], this compound showed a Prob-Test of 0.0444. In test [3], this compound came in with a Prob-Naive of -0.252. This compound also came in with a Prob-Train in test [4] of -0.537.
In turn, `NC(=O)OCC(COC(N)=O)c1ccccc1` [Felbamate] yielded an OMR-Perf in test [1] of -0.307. The compound also came in with a Prob-Test in test [2] of 0.208. In addition, in test [3], the Prob-Naive is -0.234. In addition, in test [4], the Prob-Train was -0.0131.
The matching figures for `CC(=O)N1CCN(CCOc2ccc(C3CCN(C4=Nn5c(nnc5C(F)(F)F)CC4)CC3)cc2)CC1`: -0.512, -0.666, -0.263 and -0.223.
In turn, `COc1cc2ncnc(-n3nc(-c4ccccn4)nc3N)c2cc1OC` yielded an OMR-Perf in test [1] of -0.704. The compound also returned a Prob-Test in test [2] of -0.474. The Prob-Naive in test [3] was -0.559. In test [4], this compound returned a Prob-Train of -0.761.
In test [1], `O=C(CCc1ccc(O)cc1)c1c(O)cc(O)cc1O[C@@H]1O[C@H](CO)[C@@H](O)[C@H](O)[C@@H]1O` [Phlorizin] had an OMR-Perf of -0.284. In test [2], this compound displayed a Prob-Test of -0.14. In test [3], this compound registered a Prob-Naive of 0.516. For the same compound, the Prob-Train in test [4] is -0.142.
`Nc1cccc2c1C(=O)N(C1CCC(=O)NC1=O)C2=O` (centres undefined) [Pomalidomide] gave an OMR-Perf in test [1] of 0.0176. The same compound registered a Prob-Test in test [2] of -0.268. This compound showed a Prob-Naive in test [3] of 0.454. This compound also had a Prob-Train in test [4] of 0.0978.
With `COc1ccc(-c2ccc3c(N4CCOC[C@@H]4C)nc(N4CCOC[C@@H]4C)nc3n2)cc1CO`, in test [1], the OMR-Perf was -0.388. The compound also returned a Prob-Test in test [2] of -0.435. The Prob-Naive in test [3] was determined as 0.471. The compound also returned a Prob-Train in test [4] of 0.461.
Taken in the same sequence, the figures for `Nc1nc2[nH]nnc2c(=O)[nH]1` [Azaguanine-8] were -0.124, -0.108, -0.328 and -0.269.
In the case of `Cc1onc(-c2ccccc2Cl)c1C(=O)N[C@@H]1C(=O)N2[C@@H](C(=O)[O-])C(C)(C)S[C@@H]12.O.[Na+]` [Cloxacillin Sodium], the OMR-Perf in test [1] was determined as 0.954. For the same compound, the Prob-Test in test [2] was found to be 0.955. Also, the Prob-Naive in test [3] is 0.204. Moreover, the Prob-Train in test [4] was determined as 1.35.
Regarding `CCCCNC(=O)NS(=O)(=O)c1ccc(C)cc1` [Tolbutamide], the OMR-Perf in test [1] was -0.308. The Prob-Test in test [2] worked out at 0.215. This compound also had a Prob-Naive in test [3] of 0.271. In test [4], this compound had a Prob-Train of 0.0398.
Taken in the same sequence, the figures for `Cl.OC(CCN1CCCC1)(c1ccccc1)C1CCCCC1` (centres undefined) [Procyclidine HCl] were 0.0954, -0.0262, -0.0763 and -0.491.
The matching figures for `Cc1csc(-c2nnc(Nc3ccc(Oc4ncccc4-c4ccnc(N)n4)cc3)c3ccccc23)c1`: -0.668, -0.195, -0.908 and -0.859.
The matching figures for `Cn1cnc(N)c2ncnc1-2` [3-Methyladenine]: 0.183, -0.0174, 0.145 and 0.249.
`CCc1nc(N)nc(N)c1-c1ccc(Cl)cc1` [Pyrimethamine] registered an OMR-Perf in test [1] of 0.507. The Prob-Test in test [2] was -0.172. The Prob-Naive in test [3] was determined as 0.584. In test [4], this compound gave a Prob-Train of 0.107.
As to `COC(=O)NC(C)CNc1nccc(-c2cn(C(C)C)nc2-c2cc(Cl)cc(NS(C)(=O)=O)c2F)n1` (centres undefined), the OMR-Perf in test [1] is -0.518. The Prob-Test in test [2] was -0.164. Moreover, the Prob-Naive in test [3] was -0.102. The compound also came in with a Prob-Train in test [4] of 0.266.
Taken in the same sequence, the figures for `COc1cc2c(Nc3ccc(Br)cc3F)ncnc2cc1OCC1CCN(C)CC1` [Vandetanib (ZD6474)] were 0.652, 0.16, -0.0527 and 0.0419.
In test [1], `CCS(=O)(=O)Nc1ccc2c(c1)/C(=C(/Nc1ccc(CN3CCCCC3)cc1)c1ccccc1)C(=O)N2` [Hesperadin] registered an OMR-Perf of -0.184. Besides, in test [2], the Prob-Test was 0.225. The compound further displayed a Prob-Naive in test [3] of 0.313. Besides, the Prob-Train in test [4] was determined as 0.667.
Consider `O=c1[nH]c(=O)n([C@H]2C[C@H](O)[C@@H](CO)O2)cc1C(F)(F)F` [Trifluridine], for which the OMR-Perf in test [1] was -0.717. This compound displayed a Prob-Test in test [2] of 0.329. Further, the Prob-Naive in test [3] stood at 0.493. This compound also showed a Prob-Train in test [4] of 0.488.
Turning to `CN1CCC(OC(c2ccccc2)c2ccccc2)CC1.Cl` [Diphenylpyraline HCl], the OMR-Perf in test [1] was determined as 0.67. In test [2], this compound gave a Prob-Test of 1.12. In test [3], the Prob-Naive was found to be 0.0876. The same compound returned a Prob-Train in test [4] of 0.558.
